Reference: article PMC3795677
No constants are given. Whether binding was seen depends on the method and setting. In cells and extracts the contact can be indirect. Some results given as binding are weak or reduced against the parent protein; the word gives no strength. Sequences can lack the tags named with a protein. Each block holds one binder with its values, some of them ahead of it.

How the values were obtained:
[1] = target: EvgS-mYFP (sensory histidine kinase EvgS with C-terminal monomeric yellow fluorescent protein EYFP A206K) (E. coli) (UniProt P30855); assay: FRET or BRET; homo-FRET read as steady-state fluorescence anisotropy of mYFP-tagged sensors in live MG1655 cells immobilised on a coverslip; expression varied with 0-100 µM IPTG; low anisotropy taken as self-association
[2] = target: T1, TorS-mYFP (sensory histidine kinase TorS with C-terminal monomeric yellow fluorescent protein EYFP A206K) (E. coli) (UniProt P39453); assay: FRET or BRET; spectral-shift FRET by acceptor photobleaching in live E. coli cells co-expressing an mCFP and an mYFP fusion; mYFP bleached 20 s with a 532 nm laser; an increase of the CFP signal of more than 0.5 % counts as a positive FRET pair
T1 sequence: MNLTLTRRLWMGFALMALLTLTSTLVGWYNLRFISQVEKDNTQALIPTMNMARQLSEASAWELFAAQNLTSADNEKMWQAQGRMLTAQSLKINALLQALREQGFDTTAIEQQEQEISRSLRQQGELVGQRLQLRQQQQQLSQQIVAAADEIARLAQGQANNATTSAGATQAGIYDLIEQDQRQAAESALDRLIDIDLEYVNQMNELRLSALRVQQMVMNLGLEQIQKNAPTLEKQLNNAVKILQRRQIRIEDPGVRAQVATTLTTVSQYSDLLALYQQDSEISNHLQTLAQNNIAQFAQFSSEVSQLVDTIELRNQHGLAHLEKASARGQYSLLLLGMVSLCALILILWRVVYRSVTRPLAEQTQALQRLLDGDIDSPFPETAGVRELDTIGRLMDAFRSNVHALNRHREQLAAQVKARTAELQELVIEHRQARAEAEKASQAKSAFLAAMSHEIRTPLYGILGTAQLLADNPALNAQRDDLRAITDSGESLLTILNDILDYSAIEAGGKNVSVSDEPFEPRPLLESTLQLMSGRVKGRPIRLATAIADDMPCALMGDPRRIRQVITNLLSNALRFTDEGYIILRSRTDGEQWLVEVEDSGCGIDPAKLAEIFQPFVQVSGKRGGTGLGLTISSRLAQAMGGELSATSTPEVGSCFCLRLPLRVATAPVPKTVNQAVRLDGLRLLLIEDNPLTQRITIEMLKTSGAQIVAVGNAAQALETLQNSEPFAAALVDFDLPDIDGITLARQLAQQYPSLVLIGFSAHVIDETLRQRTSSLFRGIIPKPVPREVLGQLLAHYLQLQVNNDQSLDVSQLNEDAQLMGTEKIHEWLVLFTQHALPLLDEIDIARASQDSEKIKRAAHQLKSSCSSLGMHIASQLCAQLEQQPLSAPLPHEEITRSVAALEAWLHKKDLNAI

[3] = target: T1, TorS-mYFP (sensory histidine kinase TorS with C-terminal monomeric yellow fluorescent protein EYFP A206K) (E. coli); assay: FRET or BRET; homo-FRET read as steady-state fluorescence anisotropy of mYFP-tagged sensors in live MG1655 cells immobilised on a coverslip; expression varied with 0-100 µM IPTG; low anisotropy taken as self-association

binding [1]: binds
B1: EvgS-mYFP (sensory histidine kinase EvgS with C-terminal monomeric yellow fluorescent protein EYFP A206K) (protein, UniProt P30855 22-1197)
chain: DEDYIEYRGISSNNRVTLDPLRLSNKELRWLASKKNLVIAVHKSQTATLLHTDSQQRVRGINADYLNLLKRALNIKLTLREYADHQKAMDALAEGEVDIVLSHLVTSPPLNNDIAATKPLIITFPALVTTLHDSMRPLTSPKPVNIARVANYPPDEVIHQSFPKATIISFTNLYQALASVSAGHNDYFIGSNIITSSMISRYFTHSLNVVKYYNSPRQYNFFLTRKESVILNEVLNRFVDALTNEVRYEVSQNWLDTGNLAFLNKPLELTEHEKQWIKQHPNLKVLENPYSPPYSMTDENGSVRGVMGDILNIITLQTGLNFSPITVSHNIHAGTQLSPGGWDIIPGAIYSEDRENNVLFAEAFITTPYVFVMQKAPDSEQTLKKGMKVAIPYYYELHSQLKEMYPEVEWIQVDNASAAFHKVKEGELDALVATQLNSRYMIDHYYPNELYHFLIPGVPNASLSFAFPRGEPELKDIINKALNAIPPSEVLRLTEKWIKMPNVTIDTWDLYSEQFYIVTTLSVLLVGSSLLWGFYLLRSVRRRKVIQGDLENQISFRKALSDSLPNPTYVVNWQGNVISHNSAFEHYFTADYYKNAMLPLENSDSPFKDVFSNAHEVTAETKENRTIYTQVFEIDNGIEKRCINHWHTLCNLPASDNAVYICGWQDITETRDLINALEVEKNKAIKATVAKSQFLATMSHEIRTPISSIMGFLELLSGSGLSKEQRVEAISLAYATGQSLLGLIGEILDVDKIESGNYQLQPQWVDIPTLVQNTCHSFGAIAASKSIALSCSSTFPEHYLVKIDPQAFKQVLSNLLSNALKFTTEGAVKITTSLGHIDDNHAVIKMTIMDSGSGLSQEEQQQLFKRYSQTSAGRQQTGSGLGLMICKELIKNMQGDLSLESHPGIGTTFTITIPVEISQQVATVEAKAEQPITLPEKLSILIADDHPTNRLLLKRQLNLLGYDVDEATDGVQALHKVSMQHYDLLITDVNMPNMDGFELTRKLREQNSSLPIWGLTANAQANEREKGLSCGMNLCLFKPLTLDVLKTHLSQLHQVAHIAPQYRHLDIEALKNNTANDLQLMQEILMTFQHETHKDLPAAFQALEAGDNRTFHQCIHRIHGAANILNLQKLINISHQLEITPVSDDSKPEILQLLNSVKEHIAELDQEIAVFCQKND

binding [2]: binds
B2: TorR-mCFP (response regulator TorR fused to monomeric cyan fluorescent protein) (protein, UniProt P38684 1-230)
chain: MPHHIVIVEDEPVTQARLQSYFTQEGYTVSVTASGAGLREIMQNQSVDLILLDINLPDENGLMLTRALRERSTVGIILVTGRSDRIDRIVGLEMGADDYVTKPLELRELVVRVKNLLWRIDLARQAQPHTQDNCYRFAGYCLNVSRHTLERDGEPIKLTRAEYEMLVAFVTNPGEILSRERLLRMLSARRVENPDLRTVDVLIRRLRHKLSADLLVTQHGEGYFLAADVC

binding [3]: binds
B3: TorS-mYFP (sensory histidine kinase TorS with C-terminal monomeric yellow fluorescent protein EYFP A206K) (protein, UniProt P39453 1-914)
chain: T1 sequence
